No constants are given. Whether binding was seen depends on the method and setting. Some results given as binding are weak or reduced against the parent protein; the word gives no strength.
What was measured:
alkyl-lysozyme [1] = target: alkyl-lysozyme (UniProt P00698); experiment: ELISA, coated protein, Fn F4,5 dilution series
lysozyme, native [2] = target: lysozyme, native (UniProt P00698); experiment: ELISA, coated protein, Fn F4,5 dilution series
alkyl-lysozyme [3] = target: alkyl-lysozyme (UniProt P00698); experiment: ELISA, detection anti-FLAG HRP
lysozyme, native [4] = target: lysozyme, native (UniProt P00698); experiment: ELISA, detection anti-FLAG HRP

Measured: binding

human fibronectin finger 4,5 (Fn F4,5) fragment with carboxy-terminal FLAG-tag-His-tag (from UniProt P02751 184-273)
binds: all assays above
